Reference: PubChem BioAssay AID1259254 (NCATS, 2017)
Shown is one part, drawn at random, of about 59,000 reagents. About 1,550 of them (2.6%) count as active. 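G2 share is only a proxy for re-replication; each gene was hit by three separate siRNAs, and active genes were retested.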 Raw values vary from plate to plate and are shown uncorrected. A number with no mark means an inactive call. No sequences are given here. The record does not give: the amount of reagent.

Aim: 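Gene knock-downs that lead to re-replication, shown by excess G2 DNA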 (primary screen)
Cells: human HCT116 colorectal cancer cells
Knock-down reagent: single siRNA against human genes
Time to read-out: 3 days
Measured: 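Nuclei stained with Hoechst and imaged; cell-cycle phase assigned by DNA content; G2 share scaled per plate, non-targeting siRNA 0%, GMNN siRNA 100%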
Reading the numbers: G2 robust z-score and G2 cells, % of GMNN control: higher = more G2 cells, more excess DNA replication; raw share of cells in G2: higher = larger share of cells with G2 DNA content
Call rule: 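Active siRNAs have a G2 robust z of 5 or more median absolute deviations over the median, which in these data means about 38% or higher of GMNN control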

Target gene | PubChem SID | G2 robust z-score | G2 cells, % of GMNN control | raw share of cells in G2 (%)
FAM90A3 (family with sequence similarity 90 member A3) | SID160766230 | 0.556 | 6.88 | 6.13
FAM90A3 (family with sequence similarity 90 member A3) | SID160766231 | 2.47 | 20.4 | 12.3
FAM90A3 (family with sequence similarity 90 member A3) | SID160766233 | -0.554 | -0.932 | 4.23
SLC32A1 | SID160757817 | -0.184 | 1.67 | 6.75
SLC32A1 | SID160757818 | -0.276 | 1.03 | 5.13
SLC32A1 | SID160757819 | 0.931 | 9.52 | 8.19
MDFIC (MyoD family inhibitor domain containing) | SID160739415 | 1.56 | 14 | 9.19
MDFIC (MyoD family inhibitor domain containing) | SID160739416 | 0.197 | 4.36 | 6.2
MDFIC (MyoD family inhibitor domain containing) | SID160739417 | 1.15 | 11 | 6.73
EXO1 (exonuclease 1) | SID160721616 | 2.58 | 21.1 | 14.1
EXO1 (exonuclease 1) | SID160721617 | -0.637 | -1.52 | 4.73
EXO1 (exonuclease 1) | SID160721618 | 1.7 | 14.9 | 10
MYH9 (myosin heavy chain 9) | SID160730276 | -0.102 | 2.25 | 3.94
MYH9 (myosin heavy chain 9) | SID160730383 | -0.925 | -3.54 | 3.99
MYH9 (myosin heavy chain 9) | SID160731192 | -0.979 | -3.92 | 3.92
C9orf50 (chromosome 9 open reading frame 50) | SID160733168 | -0.411 | 0.0761 | 4.67
C9orf50 (chromosome 9 open reading frame 50) | SID160765478 | 0.795 | 8.56 | 6.71
C9orf50 (chromosome 9 open reading frame 50) | SID160765480 | 1.54 | 13.8 | 9.4
CHST8 (carbohydrate sulfotransferase 8) | SID160747697 | -0.966 | -3.83 | 2.99
CHST8 (carbohydrate sulfotransferase 8) | SID160747698 | 1.24 | 11.7 | 8.47
CHST8 (carbohydrate sulfotransferase 8) | SID160747700 | 0.188 | 4.29 | 7.42
DNAJC5G (DnaJ heat shock protein family (Hsp40) member C5 gamma) | SID160763496 | 0.326 | 5.26 | 4.9
DNAJC5G (DnaJ heat shock protein family (Hsp40) member C5 gamma) | SID160763497 | -0.745 | -2.28 | 2.38
DNAJC5G (DnaJ heat shock protein family (Hsp40) member C5 gamma) | SID160763498 | 0.0313 | 3.19 | 4.64
HIF1A (hypoxia inducible factor 1 subunit alpha) | SID160774939 | -0.0216 | 2.82 | 6.07
HIF1A (hypoxia inducible factor 1 subunit alpha) | SID160774941 | 1.27 | 11.9 | 10.2
HIF1A (hypoxia inducible factor 1 subunit alpha) | SID160774942 | 0.475 | 6.31 | 6.52
CCHCR1 (coiled-coil alpha-helical rod protein 1) | SID160741872 | 0.248 | 4.71 | 5.29
CCHCR1 (coiled-coil alpha-helical rod protein 1) | SID160741873 | 1.59 | 14.1 | 10.2
CCHCR1 (coiled-coil alpha-helical rod protein 1) | SID160741874 | 1.11 | 10.8 | 6.75
DAPK2 (death associated protein kinase 2) | SID160736664 | -0.539 | -0.828 | 5.33
DAPK2 (death associated protein kinase 2) | SID160736665 | 1.56 | 13.9 | 10.3
DAPK2 (death associated protein kinase 2) | SID160736667 | 1.37 | 12.6 | 7.72
GOLGA3 (golgin A3) | SID160772507 | 0.0808 | 3.54 | 6.96
GOLGA3 (golgin A3) | SID160772516 | 0.00753 | 3.02 | 5.19
GOLGA3 (golgin A3) | SID160772526 | 1.92 | 16.5 | 9.97
LOC729532 (zinc finger protein 207 pseudogene) | SID160772852 | 2.8 | 22.7 | 13
LOC729532 (zinc finger protein 207 pseudogene) | SID160772853 | -0.056 | 2.57 | 4.09
LOC729532 (zinc finger protein 207 pseudogene) | SID160772854 | -0.772 | -2.47 | 2.27
TMEM183BP (transmembrane protein 183B, pseudogene) | SID160771044 | 0.658 | 7.6 | 6.63
TMEM183BP (transmembrane protein 183B, pseudogene) | SID160771045 | 0.203 | 4.39 | 4.8
TMEM183BP (transmembrane protein 183B, pseudogene) | SID160771046 | 0.125 | 3.85 | 3.92
KCNH5 (potassium voltage-gated channel subfamily H member 5) | SID160738436 | -0.0172 | 2.85 | 6.32
KCNH5 (potassium voltage-gated channel subfamily H member 5) | SID160738437 | -0.386 | 0.252 | 4.87
KCNH5 (potassium voltage-gated channel subfamily H member 5) | SID160738438 | 0.144 | 3.98 | 5.93

Laid out differently: results already given
Target gene	PubChem SID	G2 robust z-score	G2 cells, % of GMNN control	raw share of cells in G2 (%)
FAM90A3 (family with sequence similarity 90 member A3)	SID160766231	2.47	20.4	12.3
FAM90A3 (family with sequence similarity 90 member A3)	SID160766233	-0.554	-0.932	4.23
SLC32A1	SID160757817	-0.184	1.67	6.75
SLC32A1	SID160757818	-0.276	1.03	5.13
SLC32A1	SID160757819	0.931	9.52	8.19

Additional entries:
Target gene | PubChem SID | G2 robust z-score | G2 cells, % of GMNN control | raw share of cells in G2 (%)
OR8K1 (olfactory receptor family 8 subfamily K member 1) | SID160766414 | -0.952 | -3.73 | 2.49
OR8K1 (olfactory receptor family 8 subfamily K member 1) | SID160766415 | -0.0911 | 2.33 | 4.42
OR8K1 (olfactory receptor family 8 subfamily K member 1) | SID160766416 | 2.32 | 19.3 | 12.9
FRG2C (FSHD region gene 2 family member C) | SID160725027 | -0.216 | 1.45 | 3.71
FRG2C (FSHD region gene 2 family member C) | SID160763559 | -0.277 | 1.02 | 4.01
FRG2C (FSHD region gene 2 family member C) | SID160763560 | 0.468 | 6.26 | 5.46
GCLC (glutamate-cysteine ligase catalytic subunit) | SID160771241 | -1.25 | -5.84 | 3.12
GCLC (glutamate-cysteine ligase catalytic subunit) | SID160771252 | 1.79 | 15.5 | 11.2
GCLC (glutamate-cysteine ligase catalytic subunit) | SID160771263 | 3.79 | 29.6 | 14.2
GABRA1 (gamma-aminobutyric acid type A receptor subunit alpha1) | SID160775328 | 0.21 | 4.44 | 6.91
GABRA1 (gamma-aminobutyric acid type A receptor subunit alpha1) | SID160775336 | -0.352 | 0.494 | 4.95
GABRA1 (gamma-aminobutyric acid type A receptor subunit alpha1) | SID160775345 | 1.91 | 16.4 | 10.8
ANKRD36B (ankyrin repeat domain 36B) | SID160733678 | 3.45 | 27.3 | 11.7
ANKRD36B (ankyrin repeat domain 36B) | SID160746686 | 2.68 | 21.8 | 12.9
ANKRD36B (ankyrin repeat domain 36B) | SID160746687 | -1.07 | -4.57 | 2.27
MEP1A (meprin A subunit alpha) | SID160777160 | -0.149 | 1.92 | 6.23
MEP1A (meprin A subunit alpha) | SID160777161 | 0.0573 | 3.37 | 6.1
MEP1A (meprin A subunit alpha) | SID160777162 | -0.974 | -3.89 | 2.46
SUSD6 (sushi domain containing 6) | SID160723027 | 0.00932 | 3.03 | 6.7
SUSD6 (sushi domain containing 6) | SID160723028 | 0.481 | 6.35 | 6.59
SUSD6 (sushi domain containing 6) | SID160723029 | -0.00263 | 2.95 | 4.48
GLOD5 (glyoxalase domain containing 5) | SID160766777 | -0.532 | -0.777 | 3.53
GLOD5 (glyoxalase domain containing 5) | SID160766778 | -0.501 | -0.559 | 3.29
GLOD5 (glyoxalase domain containing 5) | SID160766779 | -0.746 | -2.28 | 3.85
